Data as given in patent US20100273189A1, “NON SEPARATION ASSAYS WITH SELECTIVE SIGNAL INHIBITORS” (BECKMAN COULTER, INC., priority 2009, published 2010).
Some results were stated once for a whole list of compounds, not compound by compound.

Molecular target: T1, biotinylated HRP (Armoracia rusticana, UniProt P00433)
T1 construct: purchased Roche Diagnostics, Indianapolis, Ind., USA
T1 sequence (P00433 31-338 limits assumed): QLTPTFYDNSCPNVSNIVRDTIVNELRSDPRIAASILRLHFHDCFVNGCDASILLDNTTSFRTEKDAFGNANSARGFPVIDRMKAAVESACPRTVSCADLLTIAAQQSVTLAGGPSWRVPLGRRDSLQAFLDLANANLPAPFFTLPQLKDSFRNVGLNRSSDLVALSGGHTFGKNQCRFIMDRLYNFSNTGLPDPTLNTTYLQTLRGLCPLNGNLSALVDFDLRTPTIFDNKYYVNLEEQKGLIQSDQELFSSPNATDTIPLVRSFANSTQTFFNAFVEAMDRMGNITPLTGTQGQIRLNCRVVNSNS
Experiment: Model system for selection of SSIA (M280 btn-BSA-AK1-streptavidin particles + Btn-HRP:HRP)
Format: biochemical
Settings: vs control; SSIA 100 μM
Description: The model system uses a microparticle conjugated to BSA (bovine serum albumin) labeled with a […] and acridan ketenedithioacetal chemiluminescent label (AK1) as the chemiluminescent-labeled sbp, and biotinylated HRP as the activator-labeled specific binding pair. In the model system, varying amounts of Btn-HRP is added to the chemiluminescent-labeled specific binding pair at 0, 1, 10, 100 and 250 ng/mL. Additional unlabeled HRP is added to reach a total HRP of concentration of 500 ng/mL in each reaction mixture. The unlabeled HRP in combination with the activator-labeled sbp was provided to the chemiluminescent-labeled sbp microparticles to emulate sample. A compound for assessment as an SSIA was also added. This reaction mixture of the model system is then triggered by addition of trigger solution in a manner of assays of the present disclosure.
To prepare the chemiluminescent-labeled sbp on microparticles, Bovine Serum Albumin (BSA) was biotinylated with 4× molar excess of biotin-LC-sulfoNHS (Pierce Biotechnology Inc., Rockford, Ill., USA). Unbound reactants were removed via desalting or dialysis. […]
5 μl of 1 mg/ml of dual-labeled (biotin and AK1) BSA M280 particles were mixed with 45 μl of working concentration SSIA in Buffer II. […] The reaction mixture was incubated for 30 min at 37° C., then 100 μL of trigger solution was added and the light intensity recorded. […]

O=c1[nH]c(=O)c2[nH]c(=O)[nH]c2[nH]1 [Uric Acid] was tested, and the “reduction in S0 signal” value was 75-88%.
